Data from paper doi:10.1101/2022.10.10.511655.
No constants are given. Whether binding was seen depends on the method and setting. In cells and extracts the contact can be indirect. Some entries that bind do so weakly or less than the wild type. For some assays here: Tags and fused reporters may be left off the sequences shown. Each block holds one binder with its values, some of them ahead of it.

By UniProt entry, the sequences of proteins in these tests, tags left out. Where a name states a change or a piece, a line headed by the entry shows the natural chain unless it says otherwise. Residues count along the entry.
UniProt Q9QZS3, whole entry: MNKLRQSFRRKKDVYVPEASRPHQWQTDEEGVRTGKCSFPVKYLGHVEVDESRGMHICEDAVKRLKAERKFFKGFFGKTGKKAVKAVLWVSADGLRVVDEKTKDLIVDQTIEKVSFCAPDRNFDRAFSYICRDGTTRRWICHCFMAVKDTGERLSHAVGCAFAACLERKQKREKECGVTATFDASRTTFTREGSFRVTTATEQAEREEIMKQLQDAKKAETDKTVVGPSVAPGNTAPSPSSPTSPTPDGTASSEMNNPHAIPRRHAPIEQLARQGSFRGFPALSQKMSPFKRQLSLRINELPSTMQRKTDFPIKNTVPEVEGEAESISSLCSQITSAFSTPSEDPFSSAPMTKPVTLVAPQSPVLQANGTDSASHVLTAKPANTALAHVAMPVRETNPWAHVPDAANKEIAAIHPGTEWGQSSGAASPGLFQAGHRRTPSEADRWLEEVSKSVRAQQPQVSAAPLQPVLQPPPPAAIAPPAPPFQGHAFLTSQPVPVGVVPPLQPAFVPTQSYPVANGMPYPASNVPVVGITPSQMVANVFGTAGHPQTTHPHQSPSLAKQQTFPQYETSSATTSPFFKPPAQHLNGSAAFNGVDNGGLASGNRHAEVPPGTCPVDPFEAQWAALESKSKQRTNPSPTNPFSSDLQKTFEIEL
UniProt Q9QZS3, 1-173: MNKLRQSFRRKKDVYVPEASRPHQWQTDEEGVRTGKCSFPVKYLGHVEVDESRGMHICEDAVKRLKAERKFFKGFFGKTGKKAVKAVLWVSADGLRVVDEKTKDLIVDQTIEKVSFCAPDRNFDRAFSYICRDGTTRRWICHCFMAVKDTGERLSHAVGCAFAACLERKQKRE
UniProt Q9QZS3, 26-653, stated change not applied: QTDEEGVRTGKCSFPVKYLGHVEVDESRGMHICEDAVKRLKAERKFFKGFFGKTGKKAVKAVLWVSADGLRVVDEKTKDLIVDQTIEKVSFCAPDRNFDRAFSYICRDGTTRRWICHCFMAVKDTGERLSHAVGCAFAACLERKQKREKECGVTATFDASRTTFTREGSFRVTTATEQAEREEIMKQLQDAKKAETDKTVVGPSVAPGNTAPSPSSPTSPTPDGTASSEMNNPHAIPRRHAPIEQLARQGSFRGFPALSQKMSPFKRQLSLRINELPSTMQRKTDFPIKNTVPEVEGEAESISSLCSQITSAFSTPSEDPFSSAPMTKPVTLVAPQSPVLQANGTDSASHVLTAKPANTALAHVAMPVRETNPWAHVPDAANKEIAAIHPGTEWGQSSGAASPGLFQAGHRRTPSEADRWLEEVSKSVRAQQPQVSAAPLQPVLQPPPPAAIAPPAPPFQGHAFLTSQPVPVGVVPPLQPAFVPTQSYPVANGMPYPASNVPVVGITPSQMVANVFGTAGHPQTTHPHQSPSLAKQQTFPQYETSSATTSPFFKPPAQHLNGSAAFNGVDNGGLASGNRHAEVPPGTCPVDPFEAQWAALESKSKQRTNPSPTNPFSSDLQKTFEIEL

How the values were obtained:
Experiment in all cases: co-IP
Numb-HA = Numb-HA (UniProt Q9QZS3)
[1] = target: endogenous Numb (mouse (endogenous in NIH3T3)) (UniProt Q9QZS3)
[2] = target: HA-tagged Numb N+PTB domain (aa1-173) (UniProt Q9QZS3)
[3] = target: HA-tagged Numb with deletion of the N-terminus (aa1-25) (UniProt Q9QZS3)
[4] = target: HA-tagged Numb with deletion of the PTB domain (aa26-173) (UniProt Q9QZS3)

- binding (Numb-HA): binds
B1: Ptch1-EGFP (receptor, UniProt Q61115 1-1434)
chain: MASAGNAAGALGRQAGGGRRRRTGGPHRAAPDRDYLHRPSYCDAAFALEQISKGKATGRKAPLWLRAKFQRLLFKLGCYIQKNCGKFLVVGLLIFGAFAVGLKAANLETNVEELWVEVGGRVSRELNYTRQKIGEEAMFNPQLMIQTPKEEGANVLTTEALLQHLDSALQASRVHVYMYNRQWKLEHLCYKSGELITETGYMDQIIEYLYPCLIITPLDCFWEGAKLQSGTAYLLGKPPLRWTNFDPLEFLEELKKINYQVDSWEEMLNKAEVGHGYMDRPCLNPADPDCPATAPNKNSTKPLDVALVLNGGCQGLSRKYMHWQEELIVGGTVKNATGKLVSAHALQTMFQLMTPKQMYEHFRGYDYVSHINWNEDRAAAILEAWQRTYVEVVHQSVAPNSTQKVLPFTTTTLDDILKSFSDVSVIRVASGYLLMLAYACLTMLRWDCSKSQGAVGLAGVLLVALSVAAGLGLCSLIGISFNAATTQVLPFLALGVGVDDVFLLAHAFSETGQNKRIPFEDRTGECLKRTGASVALTSISNVTAFFMAALIPIPALRAFSLQAAVVVVFNFAMVLLIFPAILSMDLYRREDRRLDIFCCFTSPCVSRVIQVEPQAYTEPHSNTRYSPPPPYTSHSFAHETHITMQSTVQLRTEYDPHTHVYYTTAEPRSEISVQPVTVTQDNLSCQSPESTSSTRDLLSQFSDSSLHCLEPPCTKWTLSSFAEKHYAPFLLKPKAKVVVILLFLGLLGVSLYGTTRVRDGLDLTDIVPRETREYDFIAAQFKYFSFYNMYIVTQKADYPNIQHLLYDLHKSFSNVKYVMLEENKQLPQMWLHYFRDWLQGLQDAFDSDWETGRIMPNNYKNGSDDGVLAYKLLVQTGSRDKPIDISQLTKQRLVDADGIINPSAFYIYLTAWVSNDPVAYAASQANIRPHRPEWVHDKADYMPETRLRIPAAEPIEYAQFPFYLNGLRDTSDFVEAIEKVRVICNNYTSLGLSSYPNGYPFLFWEQYISLRHWLLLSISVVLACTFLVCAVFLLNPWTAGIIVMVLALMTVELFGMMGLIGIKLSAVPVVILIASVGIGVEFTVHVALAFLTAIGDKNHRAMLALEHMFAPVLDGAVSTLLGVLMLAGSEFDFIVRYFFAVLAILTVLGVLNGLVLLPVLLSFFGPCPEVSPANGLNRLPTPSPEPPPSVVRFAVPPGHTNNGSDSSDSEYSSQTTVSGISEELRQYEAQQGAGGPAHQVIVEATENPVFARSTVVHPDSRHQPPLTPRQQPHLDSGSLSPGRQGQQPRRDPPREGLRPPPYRPRRDAFEISTEGHSGPSNRDRSGPRGARSHNPRNPTSTAMGSSVPSYCQPITTVTASASVTVAVHPPPGPGRNPRGGPCPGYESYPETDHGVFEDPHVPFHVRCERRDSKVEVIELQDVECEERPWGSSSN

- binding [1]: binds
B2: endogenous Ptch1 (receptor, UniProt Q61115 1-1434)
chain: B1 chain

- binding [2]: binds
- binding [3]: no binding
- binding [4]: no binding
B3: Ptch1-V5 (receptor, UniProt Q61115 1-1434)
chain: B1 chain
